Measurements reported in paper PMC12667445, “Targeting RBM10‐Repressed RORB Activity in Liquid Condensates Inhibits Lysosomal Biogenesis and Neuroblastoma Progression via Affecting NF‐κB Signaling” (Advanced Science, 2025).
These are yes or no findings as the source states them, for the method shown. In cells and extracts the contact can be indirect. A yes stands for co-enrichment or nearness to the bait. Other partners may have been found.

Protein sequences, listed by entry. Tags and fused reporters are not part of them.
UniProt P98175: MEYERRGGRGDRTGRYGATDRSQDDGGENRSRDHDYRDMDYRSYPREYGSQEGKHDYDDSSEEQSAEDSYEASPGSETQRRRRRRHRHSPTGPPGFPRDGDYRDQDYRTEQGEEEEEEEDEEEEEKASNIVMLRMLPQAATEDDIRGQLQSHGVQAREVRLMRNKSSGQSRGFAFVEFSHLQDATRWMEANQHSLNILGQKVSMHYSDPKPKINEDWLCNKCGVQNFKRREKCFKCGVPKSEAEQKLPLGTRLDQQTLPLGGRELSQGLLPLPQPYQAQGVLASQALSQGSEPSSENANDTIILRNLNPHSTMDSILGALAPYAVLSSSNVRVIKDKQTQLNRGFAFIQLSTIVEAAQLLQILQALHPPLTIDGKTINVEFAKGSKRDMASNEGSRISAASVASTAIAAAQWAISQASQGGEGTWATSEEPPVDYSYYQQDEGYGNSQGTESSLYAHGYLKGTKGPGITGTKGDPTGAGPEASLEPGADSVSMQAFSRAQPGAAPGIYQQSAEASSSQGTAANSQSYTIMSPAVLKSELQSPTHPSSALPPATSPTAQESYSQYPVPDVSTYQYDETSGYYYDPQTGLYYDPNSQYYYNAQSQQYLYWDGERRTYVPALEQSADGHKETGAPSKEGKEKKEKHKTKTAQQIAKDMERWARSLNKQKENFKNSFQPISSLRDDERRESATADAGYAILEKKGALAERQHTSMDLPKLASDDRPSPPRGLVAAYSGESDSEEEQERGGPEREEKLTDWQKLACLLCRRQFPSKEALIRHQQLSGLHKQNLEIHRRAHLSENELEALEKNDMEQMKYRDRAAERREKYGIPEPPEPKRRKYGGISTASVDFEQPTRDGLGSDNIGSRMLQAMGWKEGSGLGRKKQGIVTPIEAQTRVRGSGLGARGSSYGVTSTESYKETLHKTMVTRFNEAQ

Target: T1, RAR‐related orphan receptor B (RORB), endogenous (human (endogenous in SH-SY5Y, SK-N-AS, SK-N-BE(2), IMR-32)) (UniProt Q92753)
T1 sequence: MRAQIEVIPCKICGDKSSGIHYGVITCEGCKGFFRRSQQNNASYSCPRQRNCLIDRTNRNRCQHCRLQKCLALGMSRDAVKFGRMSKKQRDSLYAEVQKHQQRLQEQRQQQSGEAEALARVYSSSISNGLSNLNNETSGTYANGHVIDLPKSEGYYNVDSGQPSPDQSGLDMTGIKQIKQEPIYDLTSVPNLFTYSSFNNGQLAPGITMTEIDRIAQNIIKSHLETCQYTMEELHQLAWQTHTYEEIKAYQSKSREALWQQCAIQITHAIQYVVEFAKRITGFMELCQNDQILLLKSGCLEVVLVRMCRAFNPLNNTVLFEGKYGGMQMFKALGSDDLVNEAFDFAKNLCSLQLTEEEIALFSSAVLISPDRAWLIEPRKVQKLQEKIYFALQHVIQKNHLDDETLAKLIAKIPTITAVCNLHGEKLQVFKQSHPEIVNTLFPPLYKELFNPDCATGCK
Experiment: affinity purification with mass spectrometry; co-IP with RORB specific antibody from lysates of SH-SY5Y and SK-N-AS cells; gel bands analysed by LC-MS/MS

binding: binds
Substance: RNA binding motif protein 10 (RBM10), endogenous (from UniProt P98175 1-930)
